# Patent US20110251239A1, “COMBINATION THERAPY FOR THE TREATMENT OF DEMENTIA” (EISAI INC., priority 2010, published 2011)
# Structures can show the parent of a compound that is named as a salt.
# Experiments:
# clinical = details: both, human, in vivo; for CL/F: Phase III database
structure (smiles),measurement,setting,value
"COc1cc2c(cc1OC)C(=O)C(CC1CCN(Cc3ccccc3)CC1)C2 (racemic) [donepezil, (R,S)-1-benzyl-4-[(5,6-dimethoxy-1-indanon)-2-yl]-methylpiperidine hydrochloride]",bioavailability,clinical,91.2%
same,CL/F,"clinical; CL/F2D6,EM population mean, CYP2D6 EM",175 mL/min
same,CL/F,"clinical; CL/F2D6,PM population mean, CYP2D6 PM",119 mL/min
same,CL/F,"clinical; CL/F2D6,URM population mean, CYP2D6 URM",227 mL/min
same,dose normalized donepezil concentration in blood plasma with memantine vs without (FIG. 4),"10 mg donepezil immediate release once daily, memantine 10 mg immediate release twice daily, steady state",higher at all times of day at steady state
same,dose normalized donepezil concentration in blood plasma with memantine vs without (FIG. 3),"23 mg donepezil sustained release once daily, memantine 10 mg immediate release twice daily, steady state",higher at all times of day at steady state
same,Vc/F population mean,central compartment,539 L
same,"increase in the plasma concentration (exposure) of donepezil with memantine, equivalent increase in donepezil dose",donepezil in combination with memantine vs alone,approximately 20%
same,Vp/F population mean,peripheral compartment,625 L
same,Ktr population mean,"transit rate constant, IR formulation",2.76 h⁻¹
same,KtrSR population mean,"transit rate constant, SR formulation",0.888 h⁻¹
